The results in this text go back to publication PMC12080252, “Daphnia magna as an Alternative Model for (Simultaneous) Bioaccumulation and Chronic Toxicity Assessment—Controlled Exposure Study Indicates High Hazard of Heterocyclic PAHs” (Environmental Science & Technology, 2025).

In series [1] the test system is Daphnia magna. The experiment in a line: Chronic reproduction toxicity test (OECD 211) with passive dosing. Type of series: in vivo. As to conditions: from EA50 and CTLBB. Here is the method: Chronic toxicity tests with D. magna were performed according to the OECD guideline 211^2 using the passive dosing method. Two days before the tests, the exposure solution was predosed by shaking 10 PDMS disks loaded with the test substance in 1 L of medium for 48 h. Each test vessel (250 mL) was first flushed with the dosed solution to equilibrate the vessel walls, then filled with 100 mL of test solution, one PDMS disk, and one juvenile D. magna (<24 h old). The tests were conducted in loosely closed bottles to allow for adequate gas exchange and limit evaporation. The exposure medium was changed three times per week, and the animals were fed D. subspicatus daily (0.2 mg C/Daphnia/day). The number of offspring per adult and behavioral or physiological effects (e.g., size, movement, unhatched eggs) were recorded daily (except weekends). Dissolved oxygen, pH and temperature were also measured each week.
Tests were performed under static conditions (20 °C, 16:8 h light/dark cycle, 1 klux). Each compound was tested in 10 replicates for controls and limit tests (a single high concentration exposure to screen for significant toxic effects) and with 6 or 10 replicates for concentration–response tests. Reuse of silicone disks was included in some experiments (Table S3). Reproductive inhibition was assessed by counting offspring over 21 days. The number of offspring per mother in treatment groups was compared to controls, and the percent inhibition per replicate was used to generate concentration–response curves. A minimum of five concentrations per compound were tested to determine EC10, EC20, and EC50 values. For each test, three sets of polymers were rotated between loading, dosing, and exposure stages (Figure S2). Initial (before animal and food addition) and final (after 2–3 days of exposure, just before the medium change) water concentrations (CW) were monitored, with the latter collected after centrifugation to remove biomass (e.g., algae, carapaces, or feces).
All data are presented as average ± standard deviation. Student’s t test was used to analyze significance (p-value >0.05 considered insignificant). Concentration–response curve parameters (effective concentrations and confidence limits) and plots were generated using GraphPad Prism software (V6.01, GraphPad Software, La Jolla, CA, USA). The exposure concentrations were log10 transformed before fitting. Then a four parameters logistic model with variable slope was used to obtain EC10, EC20 and EC50 (see section S5 in SI file for details). Effective chemical activities (EA50) for chronic toxicity were calculated as follows: [drawing 1] 1 […]
S5. Concentration-response curve (CRC) fitting procedure
GraphPad Prism version 9.5.1 was used to fit CRC and obtain EC10, EC20, EC50 values and their confidence intervals. […]

Series [2] has as its system Daphnia magna. The experiment in a line: Bioaccumulation test (growth, uptake, depuration; adapted from OECD 305) with passive dosing. As to conditions: slope of ln wet weight vs time. In kind it is in vivo. Here is the method:
Bioaccumulation tests with D. magna were adapted from OECD guideline 305 (for fish).[27] Each compound was tested using 110 animals: 10 for controls and 100 for chemical exposure. The animals, aged 10 days to limit growth dilution and provide sufficient tissue for analysis, were exposed to a single subtoxic concentration of each chemical. The test included three phases: (i) growth, (ii) uptake, and (iii) depuration. A combined chronic toxicity and bioaccumulation test was also conducted in a minimized version (section 2.6).
Ten days before exposure, 110 juvenile daphnids (<24 h old) were collected from the stock culture and grown in M4 medium. Due to the large number of animals required for this test, the volume of media and amount of food provided to the Daphnia were reduced for experimental feasibility. This was achieved by maintaining a denser population (20 mL medium/daphnid), as well as less food (D. subspicatus equivalent to 0.1 mg C/daphnid/day) compared to the stock culture yet still within the limits allowed by OECD 211. Other dietary supplements (fish food and spirulina) and physical conditions (temperature, light/dark cycle) were the same as the stock culture.
Before exposure started, 2 L of M4 medium containing D. subspicatus at a density sufficient for 100 daphnids for 5 days (25 mg C L^–1) was dosed with the test substance by shaking with 24 PDMS disks for 72 h. For controls (10 animals), 200 mL of M4 medium containing D. subspicatus ([…]) was equilibrated with 2 disks loaded with pure methanol. Immediately before the start of exposure phase, 10-day old daphnids were transferred to fresh medium for 1 h to clean their guts. […]
50 animals were first transferred to fresh medium for 15 min to remove exposure solution from their surface, and then placed in a new clean medium for the depuration phase. […] Control animals and their medium were analyzed at the end of both the uptake and depuration phases (5 animals each).
For quantification of body burdens, 5 daphnids were thawed, homogenized in 5 mL Milli-Q water (IKA T-25 digital Ultra-TURRAX) and extracted twice with 2 mL of hexane. […]
The depuration rate constant (k2) was derived by plotting the natural logarithm of CD against time ([h]), with the slope giving k2 (Figure S3).[27] The growth rate constant (kg) was determined from the slope of the regression line in the plot of ln (D. magna wet weight) versus time, and the growth-corrected depuration rate constant (k2g) was calculated using eq 4. […]
The bioaccumulation factor (BAF*) was calculated, even though steady-state was not reached. […]

As to `c1ccc2c(c1)ccc1sc3ccccc3c12` [BNT, benzo[b]naphtho[1,2-d]thiophene], the Mode of action result in series [1] is on record as “baseline toxicity”. For the same compound, the “kg (growth rate constant)” value in series [2] worked out at 0.0017 h⁻¹.
The like results for `c1ccc2c(c1)ccc1oc3ccccc3c12` [BNF, benzo[b]naphtho[1,2-d]furan] were, in that order, “baseline toxicity” and 0.0032 h⁻¹.
In the same order, the values of `c1ccc2c(c1)ccc1[nH]c3ccccc3c12` [BCRB, 7H-benzo[c]carbazole] are “baseline toxicity” and 0.0019 h⁻¹.
Consider `c1ccc2c(c1)ccc1oc3ccc4ccccc4c3c12` [DNF, dinaphtho[2,1-b:1′,2′-d]furan], for which, in series [1], the Mode of action result was “baseline toxicity”. Moreover, in series [2], the “kg (growth rate constant)” value came out at 0.0024 h⁻¹.
